PubChem BioAssay AID308 (DTP/NCI, 2004)
The list does not hold the whole screen: it covers a few groups of compounds. Not every dose and run of a compound is shown. T/C gives the treated animals as a percentage of the vehicle group. For survival time, the PubChem record calls one and a half times the control and up active, and a quarter to a half above the control has no call in these data; cut-offs in other NCI protocols can differ. Some entries show no survivor count and are marked so; the dose need not have been tolerated. Schedules are NCI's codes, read here as Q, the interval in days (D) or hours (H), X, the number of doses. Some schedules carry Z or #; the key to these is not given. Some entries were tested several times; their values stand side by side, smallest first.

System: BDF1 mice, L1210 6-MP/6-TG resistant leukemia ip, survival T/C
Test: NCI In Vivo Anticancer Drug Screen. Data for tumor model L1210 Leukemia resistant to 6-MP and 6-Thioguanine; NSC 755, NSC 752 (intraperitoneal) in B6D2F1 (BDF1) mice
Details: T/C endpoint: mean survival time, higher T/C = longer survival
Description: The antitumor activity of compounds was measured in mice bearing transplantable tumors. Survival or tumor size were measured and the results are expressed as the measurement made in the treated group (T) divided by the measurement made in the vehicle treated control group (C). The tumor model used in this assay is L1210 Leukemia resistant to 6-MP and 6-Thioguanine; NSC 755, NSC 752 (intraperitoneal) in B6D2F1 (BDF1) mice

[1] = dose: 0.25 mg/kg/injection, schedule: Q01DX Z (ip), vehicle: saline
[2] = dose: 0.5 mg/kg/injection, schedule: Q01DX Z (ip), vehicle: saline
[3] = dose: 1.0 mg/kg/injection, schedule: Q01DX Z (ip), vehicle: saline
[4] = dose: 5.0 mg/kg/injection, schedule: Q01DX Z (ip), vehicle: saline
[5] = dose: 7.5 mg/kg/injection, schedule: Q01DX Z (ip), vehicle: saline
[6] = dose: 1.87 mg/kg/injection, schedule: Q01DX Z (ip), vehicle: saline
[7] = dose: 3.75 mg/kg/injection, schedule: Q01DX Z (ip), vehicle: saline
[8] = dose: 0.75 mg/kg/injection, schedule: Q01DX Z (ip), vehicle: saline
[9] = dose: 2.5 mg/kg/injection, schedule: Q01DX Z (ip), vehicle: saline
[10] = dose: 0.5 mg/kg/injection, schedule: Q01DX Z (ip), vehicle: carboxymethylcellulose (CMC)
[11] = dose: 1.25 mg/kg/injection, schedule: Q01DX Z (ip), vehicle: carboxymethylcellulose (CMC)

In the case of `Nc1ncnc2c1ncn2CCN(CCCl)CCCl`, the T/C [1] is reported as 109 % of control [survivor count not shown], the T/C [2] is reported as 128 % of control [survivor count not shown] and the T/C (dose: 0.62 mg/kg/injection, schedule: Q01DX015 (ip), vehicle: saline) is reported as 128 % of control [survivor count not shown]. For the same compound, the T/C [3] was 140 % of control [survivor count not shown], the T/C (dose: 1.25 mg/kg/injection, schedule: Q01DX015 (ip), vehicle: saline) was 150 % of control [survivor count not shown] and the T/C (dose: 2.0 mg/kg/injection, schedule: Q01DX Z (ip), vehicle: saline) was 166 % of control [survivor count not shown]. For the same compound, the T/C (dose: 2.5 mg/kg/injection, schedule: Q01DX015 (ip), vehicle: saline) was 198 % of control [survivor count not shown], the T/C (dose: 3.3 mg/kg/injection, schedule: Q01DX Z (ip), vehicle: saline) was 191 % of control [survivor count not shown] and the T/C (dose: 5.0 mg/kg/injection, schedule: Q01DX015 (ip), vehicle: saline) was 172 % of control [survivor count not shown]. The T/C [4] was 124 % of control [survivor count not shown], the T/C [5] was 127 % of control [survivor count not shown] and the T/C (dose: 11.2 mg/kg/injection, schedule: Q01DX Z (ip), vehicle: saline) was 87 % of control [survivor count not shown].

`ClCCN(CCCl)Cc1nc2ccccc2[nH]1` was tested, and the T/C [6] was 125 % of control [survivor count not shown], the T/C [7] was 125 % of control [survivor count not shown] and the T/C [5] was 167 % of control [survivor count not shown]. The T/C (dose: 10.0 mg/kg/injection, schedule: Q01DX Z (ip), vehicle: saline) was 122 [survivor count not shown] and 156 % of control [survivor count not shown], the T/C (dose: 15.0 mg/kg/injection, schedule: Q01DX Z (ip), vehicle: saline) was 125 % of control [survivor count not shown] and the T/C (dose: 20.0 mg/kg/injection, schedule: Q01DX Z (ip), vehicle: saline) was 102 % of control [survivor count not shown].

`CC(C(=O)O)N(CCCl)CCCl` (stereo not given) was tested, and the T/C [1] was 145 % of control [survivor count not shown], the T/C [2] was 139 % of control [survivor count not shown] and the T/C [8] was 161 % of control [survivor count not shown]. For the same compound, the T/C (dose: 0.93 mg/kg/injection, schedule: Q01DX Z (ip), vehicle: saline) was 242 % of control [survivor count not shown], the T/C [3] was 214 % of control [survivor count not shown] and the T/C [6] was 184 % of control [survivor count not shown]. For the same compound, the T/C [9] was 162 % of control [survivor count not shown], the T/C [7] was 143 % of control [survivor count not shown] and the T/C [4] was 115 % of control [survivor count not shown]. For the same compound, the T/C (dose: 50.0 micrograms/kg/injection, schedule: Q01DX Z (ip), vehicle: saline) was 108 % of control [survivor count not shown], the T/C (dose: 75.0 micrograms/kg/injection, schedule: Q01DX Z (ip), vehicle: saline) was 107 % of control [survivor count not shown] and the T/C (dose: 100.0 micrograms/kg/injection, schedule: Q01DX Z (ip), vehicle: saline) was 108 % of control [survivor count not shown]. For the same compound, the T/C (dose: 150.0 micrograms/kg/injection, schedule: Q01DX Z (ip), vehicle: saline) was 112 % of control [survivor count not shown].

For `ClCCNCCCl`, the T/C (dose: 25.0 mg/kg/injection, schedule: Q01DX Z (ip), vehicle: saline) was 109 % of control [survivor count not shown], the T/C (dose: 50.0 mg/kg/injection, schedule: Q01DX Z (ip), vehicle: saline) was 123 % of control [survivor count not shown] and the T/C (dose: 100.0 mg/kg/injection, schedule: Q01DX Z (ip), vehicle: saline) was 100 % of control [survivor count not shown].

`O=C(O)CN(CCCl)CCCl` was tested, and the T/C (dose: 0.37 mg/kg/injection, schedule: Q01DX Z (ip), vehicle: saline) was 129 % of control [survivor count not shown], the T/C [8] was 130 % of control [survivor count not shown] and the T/C [6] was 172 % of control [survivor count not shown]. For the same compound, the T/C [9] was 209 % of control [survivor count not shown], the T/C [7] was 219 % of control [survivor count not shown] and the T/C [4] was 159 % of control [survivor count not shown].

For `NC(Cc1cccc(N(CCCl)CCCl)c1)C(=O)O` (stereo not given), the T/C (dose: 0.12 mg/kg/injection, schedule: Q01DX Z (ip), vehicle: carboxymethylcellulose (CMC)) was 110 % of control [survivor count not shown], the T/C (dose: 0.25 mg/kg/injection, schedule: Q01DX Z (ip), vehicle: carboxymethylcellulose (CMC)) was 104 % of control [survivor count not shown] and the T/C (dose: 0.37 mg/kg/injection, schedule: Q01DX Z (ip), vehicle: carboxymethylcellulose (CMC)) was 110 % of control [survivor count not shown]. The T/C [10] was 122 % of control [survivor count not shown], the T/C (dose: 0.62 mg/kg/injection, schedule: Q01DX Z (ip), vehicle: carboxymethylcellulose (CMC)) was 141 % of control [survivor count not shown] and the T/C [11] was 230 % of control [survivor count not shown]. For the same compound, the T/C (dose: 2.5 mg/kg/injection, schedule: Q01DX Z (ip), vehicle: carboxymethylcellulose (CMC)) was 173 % of control [survivor count not shown], the T/C (dose: 5.0 mg/kg/injection, schedule: Q01DX Z (ip), vehicle: carboxymethylcellulose (CMC)) was 119 % of control [survivor count not shown] and the T/C (dose: 7.5 mg/kg/injection, schedule: Q01DX Z (ip), vehicle: carboxymethylcellulose (CMC)) was 89 % of control [survivor count not shown].

With `NC(Cc1ccccc1N(CCCl)CCCl)C(=O)O` (stereo not given) the T/C [10] was 242 % of control [survivor count not shown], the T/C (dose: 1.0 mg/kg/injection, schedule: Q01DX Z (ip), vehicle: carboxymethylcellulose (CMC)) was 231 % of control [survivor count not shown] and the T/C [11] was 142 % of control [survivor count not shown]. The T/C (dose: 1.87 mg/kg/injection, schedule: Q01DX Z (ip), vehicle: carboxymethylcellulose (CMC)) was 93 % of control [survivor count not shown], the T/C (dose: 2.0 mg/kg/injection, schedule: Q01DX Z (ip), vehicle: carboxymethylcellulose (CMC)) was 139 % of control [survivor count not shown] and the T/C (dose: 4.0 mg/kg/injection, schedule: Q01DX Z (ip), vehicle: carboxymethylcellulose (CMC)) was 86 % of control [survivor count not shown].
